{
  "source": "the supplement of paper PMC12009310",
  "key": {"mIMCD3 [1]": {"system": "mIMCD3", "test": "robust z score of cell number vs plate controls; higher = more cells (less cytotoxic)", "conditions": "10 µM, 48 h"}, "mIMCD3 [2]": {"system": "mIMCD3", "test": "robust z score of cilia incidence (% cells with single cilium) vs plate controls; higher = more ciliated cells", "conditions": "10 µM; 48 h; siRNA: siScr"}, "mIMCD3 [3]": {"system": "mIMCD3", "test": "robust z score of cilia incidence (% cells with single cilium) vs plate controls; higher = more ciliated cells (rescue of cilia loss)", "conditions": "10 µM; 48 h; siRNA: siRpgrip1l"}, "mIMCD3 [4]": {"system": "mIMCD3", "test": "robust z cell number difference from vehicle control (robust z score difference); higher = more cells", "conditions": "10 µM, 48 h"}, "mIMCD3 [5]": {"system": "mIMCD3", "test": "robust z cilia incidence difference from vehicle control (robust z score difference); higher = more ciliated cells", "conditions": "10 µM; 48 h; siRNA: siScr"}, "mIMCD3 [6]": {"system": "mIMCD3", "test": "robust z cilia incidence difference from vehicle control (robust z score difference); higher = more ciliated cells (rescue)", "conditions": "10 µM; 48 h; siRNA: siRpgrip1l"}},
  "note": "“And” between values parts separate entries of the source, which are not always exact repeats. Identical values can stand only once. Counter-ions that a name gives are not always drawn. ± gives the standard deviation of the averaged measurements. The list shows a part of the results. Part of the spread comes from offsets between plates or batches.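 A mouse kidney inner medullary collecting duct cell line was silenced for the ciliary gene Rpgrip1l or given non-targeting control siRNA. Primary scores average two runs versus batch controls. In follow-up screening, hits raised cilia at least 2 over matched controls; compounds lowering cell number by 2 or more were excluded. The cells are a mouse kidney inner medullary collecting duct line, silenced either for the ciliary gene Rpgrip1l or with a non-targeting control siRNA.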",
  "data": [
    {"smiles": "CCOC(=O)c1cnc2c(cnn2CC)c1NN=C(C)C", "note": "[Etazolate hydrochloride]", "values": [
      {"measurement": "robust z score of cell number", "setting": "mIMCD3 [1]; siRNA: siRpgrip1l", "value": "-27.9 ± 33"},
      {"measurement": "robust z score of cell number", "setting": "mIMCD3 [1]; siRNA: siScr", "value": "-20.2 ± 9.6"},
      {"measurement": "robust z score of cilia incidence", "setting": "mIMCD3 [2]", "value": "1.94 ± 1.8"},
      {"measurement": "robust z score of cilia incidence", "setting": "mIMCD3 [3]", "value": "-5.32 ± 5.2"}
    ]},
    {"smiles": "CN/C(=N\\CCSCc1nc[nH]c1C)NC#N", "note": "[Cimetidine]", "values": [
      {"measurement": "robust z score of cell number", "setting": "mIMCD3 [1]; siRNA: siRpgrip1l", "value": "-19.2 ± 23"},
      {"measurement": "robust z score of cell number", "setting": "mIMCD3 [1]; siRNA: siScr", "value": "-0.956 ± 5.2"},
      {"measurement": "robust z score of cilia incidence", "setting": "mIMCD3 [2]", "value": "0.111 ± 1"},
      {"measurement": "robust z score of cilia incidence", "setting": "mIMCD3 [3]", "value": "-5.37 ± 1.7"}
    ]},
    {"smiles": "CCC(C)(C)C(=O)O[C@H]1C[C@@H](C)C=C2C=C[C@H](C)[C@H](CC[C@@H]3C[C@@H](O)CC(=O)O3)[C@H]21", "note": "[Simvastatin]", "values": [
      {"measurement": "robust z score of cilia incidence", "setting": "mIMCD3 [2]", "value": "-101 ± 53"},
      {"measurement": "robust z score of cilia incidence", "setting": "mIMCD3 [3]", "value": "-107 ± 94"}
    ]},
    {"smiles": "Cc1cccc(CCN2CCC(C(=O)c3ccc(NS(C)(=O)=O)cc3)CC2)n1", "note": "[E-4031 dihydrochloride]", "values": [
      {"measurement": "robust z score of cilia incidence", "setting": "mIMCD3 [2]", "value": "-27.6 ± 17"},
      {"measurement": "robust z score of cilia incidence", "setting": "mIMCD3 [3]", "value": "-41.9 ± 25"}
    ]},
    {"smiles": "Cc1ccc(CC2(O)CCN(CCOc3ccc(O)cc3)CC2)cc1", "values": [
      {"measurement": "robust z score of cell number", "setting": "mIMCD3 [1]; siRNA: siRpgrip1l", "value": "-21.7 ± 10"},
      {"measurement": "robust z score of cell number", "setting": "mIMCD3 [1]; siRNA: siScr", "value": "-21.4 ± 5.7"},
      {"measurement": "robust z score of cilia incidence", "setting": "mIMCD3 [2]", "value": "-28.8 ± 18"},
      {"measurement": "robust z score of cilia incidence", "setting": "mIMCD3 [3]", "value": "-26.3 ± 16"}
    ]},
    {"smiles": "CCc1c2c(nc3ccc(O)cc13)-c1cc3c(c(=O)n1C2)COC(=O)[C@]3(O)CC", "values": [
      {"measurement": "robust z score of cell number", "setting": "mIMCD3 [1]; siRNA: siRpgrip1l", "value": "-31.1 ± 29"},
      {"measurement": "robust z score of cell number", "setting": "mIMCD3 [1]; siRNA: siScr", "value": "-14.6 ± 13"},
      {"measurement": "robust z score of cilia incidence", "setting": "mIMCD3 [2]", "value": "-25 ± 15"},
      {"measurement": "robust z score of cilia incidence", "setting": "mIMCD3 [3]", "value": "-19.9 ± 0.48"}
    ]},
    {"smiles": "COC(=O)C1=C(C)NC(C)=C(C(=O)OCCCN2CCC(c3ccccc3)(c3ccccc3)CC2)[C@@H]1c1cccc([N+](=O)[O-])c1", "note": "[(R)-(-)-Niguldipine hydrochloride]", "values": [
      {"measurement": "robust z score of cell number", "setting": "mIMCD3 [1]; siRNA: siRpgrip1l", "value": "-56.6 ± 45"},
      {"measurement": "robust z score of cell number", "setting": "mIMCD3 [1]; siRNA: siScr", "value": "-22.7 ± 4.9"},
      {"measurement": "robust z score of cilia incidence", "setting": "mIMCD3 [2]", "value": "-20.7 ± 0.55"},
      {"measurement": "robust z score of cilia incidence", "setting": "mIMCD3 [3]", "value": "-37.5 ± 14"}
    ]},
    {"smiles": "CC(C)NCCN(C(C)C)S(=O)(=O)c1ccc(Cl)cc1Cl", "values": [
      {"measurement": "robust z score of cell number", "setting": "mIMCD3 [1]; siRNA: siRpgrip1l", "value": "-18.1 ± 17"},
      {"measurement": "robust z score of cell number", "setting": "mIMCD3 [1]; siRNA: siScr", "value": "-19.6 ± 1.9"},
      {"measurement": "robust z score of cilia incidence", "setting": "mIMCD3 [2]", "value": "-36 ± 5.6"},
      {"measurement": "robust z score of cilia incidence", "setting": "mIMCD3 [3]", "value": "-31.4 ± 3.1"}
    ]},
    {"smiles": "O=C(O)C1=CCNCC1", "note": "[Isoguvacine hydrochloride]", "values": [
      {"measurement": "robust z score of cell number", "setting": "mIMCD3 [1]; siRNA: siRpgrip1l", "value": "4.77 ± 9.7"},
      {"measurement": "robust z score of cell number", "setting": "mIMCD3 [1]; siRNA: siScr", "value": "-0.736 ± 1.6"},
      {"measurement": "robust z score of cilia incidence", "setting": "mIMCD3 [2]", "value": "0.0342 ± 1.2"},
      {"measurement": "robust z score of cilia incidence", "setting": "mIMCD3 [3]", "value": "-9.11 ± 7.8"}
    ]},
    {"smiles": "N[C@@H](Cn1ccc(=O)n(Cc2ccccc2C(=O)O)c1=O)C(=O)O", "values": [
      {"measurement": "robust z score of cell number", "setting": "mIMCD3 [1]; siRNA: siRpgrip1l", "value": "1.04 and 1.9"},
      {"measurement": "robust z score of cilia incidence", "setting": "mIMCD3 [2]", "value": "1.18 and 1.51"},
      {"measurement": "robust z score of cilia incidence", "setting": "mIMCD3 [3]", "value": "-11.7 and -11.4"}
    ]},
    {"smiles": "CC1C(=O)OC2C(O)C34C5CC(C(C)(C)C)C36C(OC(=O)C6O)OC4(C(=O)O5)C12O", "note": "(centres undefined) [Ginkgolide B]", "values": [
      {"measurement": "robust z score of cell number", "setting": "mIMCD3 [1]; siRNA: siRpgrip1l", "value": "-4.44 ± 5.7"},
      {"measurement": "robust z score of cell number", "setting": "mIMCD3 [1]; siRNA: siScr", "value": "-2.5 ± 4.2"},
      {"measurement": "robust z score of cilia incidence", "setting": "mIMCD3 [2]", "value": "-0.423 ± 2.9"},
      {"measurement": "robust z score of cilia incidence", "setting": "mIMCD3 [3]", "value": "-170 ± 140"}
    ]},
    {"smiles": "C[S+]([O-])c1ccc(-c2nc(-c3ccc(F)cc3)c(-c3ccncc3)[nH]2)cc1", "note": "(centres undefined)", "values": [
      {"measurement": "robust z score of cell number", "setting": "mIMCD3 [1]; siRNA: siScr", "value": "-8.4 and -7.23"},
      {"measurement": "robust z score of cilia incidence", "setting": "mIMCD3 [3]", "value": "-22 and -9.8"}
    ]},
    {"smiles": "C=CCN1CCc2cc(O)c(O)cc2C(c2ccccc2)C1", "note": "(centres undefined)", "values": [
      {"measurement": "robust z score of cell number", "setting": "mIMCD3 [1]; siRNA: siRpgrip1l", "value": "-159 ± 170"},
      {"measurement": "robust z score of cell number", "setting": "mIMCD3 [1]; siRNA: siScr", "value": "-42.3 ± 9.6"},
      {"measurement": "robust z score of cilia incidence", "setting": "mIMCD3 [2]", "value": "-25.2 ± 9"},
      {"measurement": "robust z score of cilia incidence", "setting": "mIMCD3 [3]", "value": "-338 ± 190"}
    ]},
    {"smiles": "Cc1c(C(=O)NN2CCCCC2)nn(-c2ccc(Cl)cc2Cl)c1-c1ccc(I)cc1", "values": [
      {"measurement": "robust z cell number difference", "setting": "mIMCD3 [4]; siRNA: siRpgrip1l", "value": -16.3},
      {"measurement": "robust z cell number difference", "setting": "mIMCD3 [4]; siRNA: siScr", "value": "-8.69 ± 10"},
      {"measurement": "robust z score of cilia incidence", "setting": "mIMCD3 [2]", "value": "-4.41 ± 0.78"},
      {"measurement": "robust z cilia incidence difference", "setting": "mIMCD3 [5]", "value": "-10.9 ± 16"},
      {"measurement": "robust z cilia incidence difference", "setting": "mIMCD3 [6]", "value": -52.3},
      {"measurement": "robust z score of cilia incidence", "setting": "mIMCD3 [3]", "value": "-9.55 ± 15"}
    ]},
    {"smiles": "CC1c2ccccc2CN1CC1=NCCN1", "note": "(centres undefined)", "values": [
      {"measurement": "robust z score of cell number", "setting": "mIMCD3 [1]; siRNA: siRpgrip1l", "value": "-11.5 ± 8.8"},
      {"measurement": "robust z score of cell number", "setting": "mIMCD3 [1]; siRNA: siScr", "value": "-7.36 ± 0.65"},
      {"measurement": "robust z score of cilia incidence", "setting": "mIMCD3 [2]", "value": "-0.444 ± 0.14"},
      {"measurement": "robust z score of cilia incidence", "setting": "mIMCD3 [3]", "value": "-15.6 ± 0.7"}
    ]},
    {"smiles": "CC(=O)OCCNC(=O)c1cccnc1", "note": "[N-[2-(Acetoxy)ethyl]-3-pyridinecarboxamide]", "values": [
      {"measurement": "robust z score of cell number", "setting": "mIMCD3 [1]; siRNA: siRpgrip1l", "value": "8.09 ± 15"},
      {"measurement": "robust z score of cell number", "setting": "mIMCD3 [1]; siRNA: siScr", "value": "-1.22 ± 0.75"},
      {"measurement": "robust z score of cilia incidence", "setting": "mIMCD3 [2]", "value": "0.217 ± 0.14"},
      {"measurement": "robust z score of cilia incidence", "setting": "mIMCD3 [3]", "value": "-7.42 ± 4"}
    ]}
  ]
}
